Here are results for ten compounds from PubChem BioAssay AID328 (DTP/NCI, 2004).

In this test the test system is BDF1 mice, P388 leukemia ip, median survival T/C. Nature of the test: NCI In Vivo Anticancer Drug Screen. Data for tumor model P388 Leukemia (intraperitoneal) in B6D2F1 (BDF1) mice. Conditions: T/C endpoint: median survival time, higher T/C = longer survival. The procedure, abridged: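 T/C = treated-group survival ÷ vehicle-control survival; tumour transplanted into mice before dosing.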

The mark [1] stands for this setting: dose: 33.0 mg/kg/injection, schedule: Q04DX003 (ip), vehicle: Klucel (hydroxypropylcellulose) (HPC).
The mark [2] stands for this setting: dose: 50.0 mg/kg/injection, schedule: Q01DX009 (ip), vehicle: Klucel (hydroxypropylcellulose) (HPC).
Setting [3] is: dose: 50.0 mg/kg/injection, schedule: Q04DX003 (ip), vehicle: Klucel (hydroxypropylcellulose) (HPC).
[4] abbreviates: dose: 75.0 mg/kg/injection, schedule: Q01DX009 (ip), vehicle: Klucel (hydroxypropylcellulose) (HPC).
Where [5] appears, read: dose: 100.0 mg/kg/injection, schedule: Q04DX003 (ip), vehicle: Klucel (hydroxypropylcellulose) (HPC).
Setting [6] is: dose: 200.0 mg/kg/injection, schedule: Q04DX003 (ip), vehicle: Klucel (hydroxypropylcellulose) (HPC).
Where [7] appears, read: dose: 18.0 mg/kg/injection, schedule: Q01DX009 (ip), vehicle: saline.
Where [8] appears, read: dose: 100.0 mg/kg/injection, schedule: Q01DX001 (ip), vehicle: saline.
The mark [9] stands for this setting: dose: 200.0 mg/kg/injection, schedule: Q01DX001 (ip), vehicle: saline.
Where [10] appears, read: dose: 8.2 mg/kg/injection, schedule: Q01DX009 (ip), vehicle: saline.

The list shows only some results of the screen, not a fair sample: its compounds were picked by chemical class. Not every dose and run of a compound is shown. T/C: endpoint of the treated group in % of that of the vehicle group. Some doses have a count of surviving animals in place of a T/C: the source files T/C as zero there, which appears to mark a toxic dose or a test without result, not a measured value. Some survivor counts are full or nearly so, which does not show that the dose was tolerated: survival well below the control is almost never listed, so the zero probably covers shortened survival too. Counts of survivors are from the toxicity check (mostly the fifth day) where no day follows; animals may have died later. Schedule codes are those of the source, taken here to give the interval after Q, in days (D) or hours (H), and the number of doses after X. Where survival is the endpoint, this PubChem deposit counts one and a half times the control or more as active, and values a quarter to a half above the control carry no call in these data; other NCI protocols may use other cut-offs. Some entries were tested several times; the results are listed from low to high. Some entries show no survivor count and are marked so; the dose need not have been tolerated. Some T/C values carry the count of animals alive at the toxicity check (mostly the fifth day); without a count or a note in brackets, all were alive then.

On to `O=C(O)CCc1cccc(N(CCCl)CCCl)c1`, for which the T/C is 100 % of control (dose: 1.5 mg/kg/injection, schedule: Q01DX009 (ip), vehicle: Klucel (hydroxypropylcellulose) (HPC)); 90 % of control (dose: 2.3 mg/kg/injection, schedule: Q01DX009 (ip), vehicle: Klucel (hydroxypropylcellulose) (HPC)); 131 % of control (dose: 8.2 mg/kg/injection, schedule: Q01DX009 (ip), vehicle: Klucel (hydroxypropylcellulose) (HPC)); 113 % of control (dose: 12.0 mg/kg/injection, schedule: Q01DX009 (ip), vehicle: Klucel (hydroxypropylcellulose) (HPC)); 136 % of control (dose: 18.75 mg/kg/injection, schedule: Q01DX009 (ip), vehicle: Klucel (hydroxypropylcellulose) (HPC)); 118 % of control under setting [1]. For the same compound, the T/C reads like this: (dose: 37.5 mg/kg/injection, schedule: Q01DX009 (ip), vehicle: Klucel (hydroxypropylcellulose) (HPC)) 172 % of control; under setting [2], 170 % of control; under setting [3], 136, 168, 195 % of control; (dose: 66.0 mg/kg/injection, schedule: Q04DX003 (ip), vehicle: saline with Tween-80) 100 % of control; under setting [4], 204 and 231 % of control; (dose: 75.0 mg/kg/injection, schedule: Q04DX003 (ip), vehicle: Klucel (hydroxypropylcellulose) (HPC)) 90 and 204 % of control. Further, the T/C reads like this: (dose: 100.0 mg/kg/injection, schedule: Q04DX003 (ip), vehicle: saline with Tween-80) 125 % of control; (dose: 150.0 mg/kg/injection, schedule: Q04DX003 (ip), vehicle: saline with Tween-80) 170 % of control. Further, the survivor count reads like this: under setting [1], 3 of 6; under setting [2], 5 of 6; under setting [4], 6 of 6; under setting [5], 0 of 6; (dose: 110.0 mg/kg/injection, schedule: Q01DX009 (ip), vehicle: Klucel (hydroxypropylcellulose) (HPC)) 1 of 6; (dose: 112.5 mg/kg/injection, schedule: Q01DX009 (ip), vehicle: Klucel (hydroxypropylcellulose) (HPC)) 0 of 6. Also, the survivor count is 2 of 6 (dose: 132.0 mg/kg/injection, schedule: Q04DX003 (ip), vehicle: saline with Tween-80); 0 of 6 under setting [6]; 1 of 6 (dose: 200.0 mg/kg/injection, schedule: Q04DX003 (ip), vehicle: saline with Tween-80); 0 of 6 (dose: 300.0 mg/kg/injection, schedule: Q04DX003 (ip), vehicle: saline with Tween-80).

As to `CC1COP(N(C(C)C)C(C)C)O1` (stereo not given), the T/C by setting is: (dose: 50.0 mg/kg/injection, schedule: Q01DX009 (ip), vehicle: saline with Tween-80) 109 % of control; (dose: 100.0 mg/kg/injection, schedule: Q01DX009 (ip), vehicle: saline with Tween-80) 103 % of control; (dose: 200.0 mg/kg/injection, schedule: Q01DX009 (ip), vehicle: saline with Tween-80) 94 % of control.

As for `COc1cc([N+](=O)[O-])c2nc(C(O)C[N+](=O)[O-])ccc2c1[N+](=O)[O-]` (stereo not given), the T/C is 125 % of control (dose: 12.5 mg/kg/injection, schedule: Q01DX009 (ip), vehicle: other); 118 % of control (dose: 25.0 mg/kg/injection, schedule: Q01DX009 (ip), vehicle: other); 100 % of control (dose: 50.0 mg/kg/injection, schedule: Q01DX009 (ip), vehicle: other); 98 % of control (dose: 100.0 mg/kg/injection, schedule: Q01DX009 (ip), vehicle: other); 100 % of control (dose: 200.0 mg/kg/injection, schedule: Q01DX009 (ip), vehicle: other).

Turning to `COC1OC(CNCCBr)C2OC(C)(C)OC12` (stereo not given), the T/C (dose: 2.25 mg/kg/injection, schedule: Q01DX009 (ip), vehicle: saline) was 105 % of control [5 of 6 alive]; the T/C (dose: 4.5 mg/kg/injection, schedule: Q01DX009 (ip), vehicle: saline) was 122 % of control; the T/C (dose: 9.0 mg/kg/injection, schedule: Q01DX009 (ip), vehicle: saline) was 188 % of control; the T/C under setting [7] is 205 % of control; the T/C (dose: 25.0 mg/kg/injection, schedule: Q01DX001 (ip), vehicle: saline) is 163 % of control; the T/C (dose: 36.0 mg/kg/injection, schedule: Q01DX009 (ip), vehicle: saline) is 250 % of control. Further, the T/C by setting is: (dose: 50.0 mg/kg/injection, schedule: Q01DX001 (ip), vehicle: saline) 181 % of control; under setting [8], 190 % of control; under setting [9], 181 % of control.

On to `CCC1COP(N(C)C)OC1` (stereo not given), for which the T/C runs as follows: under setting [8], 120 % of control; under setting [9], 100 % of control; (dose: 400.0 mg/kg/injection, schedule: Q01DX001 (ip), vehicle: saline) 101 % of control.

On to `O=[N+]([O-])c1cc([N+](=O)[O-])c(NN2CCCCC2)c([N+](=O)[O-])c1`, for which the T/C is 100 % of control [survivor count not shown] under setting [5]; 100 % of control [survivor count not shown] under setting [6]; 104 % of control [survivor count not shown] (dose: 400.0 mg/kg/injection, schedule: Q04DX003 (ip), vehicle: Klucel (hydroxypropylcellulose) (HPC)).

In the case of `NC(=O)c1cc(I)cc(I)c1N=NN(CCCl)CCCl`, the T/C by setting is: under setting [2], 115 % of control; (dose: 100.0 mg/kg/injection, schedule: Q01DX009 (ip), vehicle: Klucel (hydroxypropylcellulose) (HPC)) 123 % of control; (dose: 200.0 mg/kg/injection, schedule: Q01DX009 (ip), vehicle: Klucel (hydroxypropylcellulose) (HPC)) 133 % of control.

Turning to `Cc1ccc(P(=S)(Cl)Cl)cc1`, the T/C is 118 % of control (dose: 25.0 mg/kg/injection, schedule: Q04DX003 (ip), vehicle: Klucel (hydroxypropylcellulose) (HPC)); 109 % of control under setting [3]; 104 % of control under setting [5].

For the compound `CCN(CCCl)CC1OC(OC)C2OC(C)(C)OC12` (stereo not given), the T/C is, setting by setting: (dose: 2.0 mg/kg/injection, schedule: Q01DX009 (ip), vehicle: saline) 158 % of control [5 of 6 alive]; (dose: 4.1 mg/kg/injection, schedule: Q01DX009 (ip), vehicle: saline) 195 % of control; under setting [10], 211 % of control [5 of 6 alive]; (dose: 8.3 mg/kg/injection, schedule: Q04DX003 (ip), vehicle: saline) 162 % of control; (dose: 12.5 mg/kg/injection, schedule: Q01DX009 (ip), vehicle: saline) 141 [4 of 6 alive] and 188 % of control [4 of 6 alive]; (dose: 12.5 mg/kg/injection, schedule: Q04DX003 (ip), vehicle: saline) 133 % of control. For the same compound, the T/C is 94 [4 of 6 alive] and 104 % of control [5 of 6 alive] under setting [7]; 166 % of control (dose: 18.75 mg/kg/injection, schedule: Q04DX003 (ip), vehicle: saline). For the same compound, the survivor count is listed as 3 of 6 under setting [10]; 0 of 6 (dose: 50.0 mg/kg/injection, schedule: Q01DX009 (ip), vehicle: saline); 0 of 6 (dose: 100.0 mg/kg/injection, schedule: Q01DX009 (ip), vehicle: saline); 0 of 6 (dose: 200.0 mg/kg/injection, schedule: Q01DX009 (ip), vehicle: saline); 0 of 6 (dose: 400.0 mg/kg/injection, schedule: Q01DX009 (ip), vehicle: saline).

`O=C(N(CCCl)CCCl)C(F)(F)F`: the T/C by setting is: (dose: 150.0 mg/kg/injection, schedule: Q04DX003 (ip), vehicle: saline) 120 % of control; (dose: 200.0 mg/kg/injection, schedule: Q04DX003 (ip), vehicle: saline) 143 % of control; (dose: 400.0 mg/kg/injection, schedule: Q04DX003 (ip), vehicle: saline) 145 % of control. For the same compound, the survivor count (dose: 600.0 mg/kg/injection, schedule: Q04DX003 (ip), vehicle: saline) was 3 of 6.
